Results: article PMC9609004, “Computational Design, Synthesis, and Pharmacological Evaluation of Naproxen-Guaiacol Chimera for Gastro-Sparing Anti-Inflammatory Response by Selective COX2 Inhibition” (Molecules, 2022)

Test system: acetic-acid-induced writhing
Assay: Analgesic activity, acetic-acid-induced abdominal writhing assay
Type: in vivo, ICR mice
Conditions: acetic acid 1%, 10 mL/kg i.p.; S-naproxen 15 mg/kg, MAS-1696 equimolar 21.1 mg/kg, 4-allyl guaiacol 15.46 mg/kg; n = 6
Experimental: The ICR mice were used to carry out the analgesic activity by using the abdominal writhing assay method as described by us previously. The mice were divided into six various groups (n = 6) and the writhing response was initiated by intraperitoneal (i.p.) administration of a recently formulated acetic acid solution (1%, 10 mL/kg, i.p.). The number of writhes developed after the administration of acetic acid was considered an antinociceptive response and the count of total writhes per animal was also noted in a 20 min period. After 3 min of administration of the acetic acid solution, writhes were counted. % Inhibition = [1 − Nt/Nc] × 100 where Nc—number of writhes in the control group; Nt—number of writhes in the drug-treated group.

COc1ccc2cc([C@H](C)C(=O)O)ccc2c1 [Naproxen, S-naproxen]
Analgesic effect (inhibition of writhing): considerable inhibition
